According to publication PMC7957265:
Results are given in words; binding and its absence hold for the method and conditions named. Binding seen in cells or lysates may run through a third protein. Some entries that bind do so weakly or less than the wild type. Where a sequence is shown, tags or fusion partners need not be part of it.

By UniProt entry, the sequences of proteins in these tests, tags left out.
UniProt Q68G74: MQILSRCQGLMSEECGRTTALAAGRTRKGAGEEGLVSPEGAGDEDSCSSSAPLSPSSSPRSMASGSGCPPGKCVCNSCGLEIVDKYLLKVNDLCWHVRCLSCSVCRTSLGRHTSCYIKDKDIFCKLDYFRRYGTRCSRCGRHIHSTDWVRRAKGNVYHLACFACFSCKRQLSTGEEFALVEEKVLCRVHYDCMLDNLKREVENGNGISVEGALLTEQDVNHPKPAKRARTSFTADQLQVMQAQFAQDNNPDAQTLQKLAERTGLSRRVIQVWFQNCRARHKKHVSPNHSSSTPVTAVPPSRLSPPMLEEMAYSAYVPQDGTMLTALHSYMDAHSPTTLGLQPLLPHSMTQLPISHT

Target: T1, Suv39h1, histone-lysine N-methyltransferase (human (endogenous in DPSCs)) (UniProt O43463)
T1 sequence: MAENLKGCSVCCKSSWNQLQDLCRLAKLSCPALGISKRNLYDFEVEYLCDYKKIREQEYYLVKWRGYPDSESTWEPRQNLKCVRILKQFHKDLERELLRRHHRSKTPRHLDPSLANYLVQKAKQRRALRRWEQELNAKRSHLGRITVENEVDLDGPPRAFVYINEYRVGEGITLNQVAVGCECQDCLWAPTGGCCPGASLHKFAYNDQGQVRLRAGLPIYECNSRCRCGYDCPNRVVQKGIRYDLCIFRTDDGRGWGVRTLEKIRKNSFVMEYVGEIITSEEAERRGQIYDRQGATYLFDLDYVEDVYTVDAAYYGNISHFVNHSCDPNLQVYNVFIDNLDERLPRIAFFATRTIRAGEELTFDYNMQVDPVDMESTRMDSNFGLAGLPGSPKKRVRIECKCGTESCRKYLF
Experiment: co-IP; nuclear lysates of DPSCs, about 1 mg protein extract with 10 ug anti-Suv39h1 monoclonal antibody or IgG control, 12 hours at 4°C, protein A Sepharose, three washes with ice-cold lysis buffer, Western blot

- binding: binds
Substance: LIM-homeobox 8 (Lhx8) (from UniProt Q68G74 1-356)
